# Laboratory results reported in the supplement of paper PMC10338343.
# ± gives the standard deviation. The entries are a selection whose mix differs from that of the whole data set. Many of these values have a large error.
# Experiments:
# [1] = tested on: MILI (PIWIL2) piRISC loaded with piRNA #1 (26 nt); test: pre-steady-state target cleavage rate (min^-1); MIWI and MILI are mouse PIWI proteins and EfPiwi is from a freshwater sponge; tags in brackets are library labels; higher = faster piRNA-guided slicing of the target; conditions: guide: piRNA #1 5'p-UGAGGUAGUAGGUUGUAUAGUAUCCA; auxiliary factor: 500 nM mouse GTSF1
# In short: (§1)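 The pre-steady-state cleavage rate was obtained by Cleave-'n-Seq with a burst-and-steady-state fit. A transcribed, DNA-blocked target RNA library (0.1 nM) was mixed with 1 nM active affinity-purified piRISC carrying one synthetic guide, with or without 500 nM GTSF1 partner protein, in HEPES–potassium acetate buffer at 33 °C for 0–8 or 0–960 min. Uncleaved targets were sequenced and normalised to depth and to weakly complementary targets, with three trials pooled and k3 capped at 0.0001 min^-1.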
# [2] = tested on: MIWI (PIWIL1) piRISC loaded with piRNA #1 (30 nt); test: as above; conditions: guide: piRNA #1 5'p-UGAGGUAGUAGGUUGUAUAGUAUCCAGAGG; auxiliary factor: 500 nM mouse GTSF1
# In short: as §1
Sequence,pre-steady-state target cleavage rate [1],pre-steady-state target cleavage rate [2]
GGAGACCUAUGAUAACAACGUACUUCCUCA,0.000996 ± 0.007,0.000416 ± 0.012
GGAGACCUAUGAUAUGUUGGUAAUACCUCA,0.000314 ± 0.022,0.000514 ± 0.011
GGAGACCUAUGAUAUGUUGCUACUACUCA,0.000359 ± 0.016,0.000591 ± 0.011
GGAGACCUAUGAUAUCAACCUACUACCGUCA,0.0019 ± 0.0046,0.00018 ± 0.025
GGAGACCUAUGAAUACUACGUACUACCUCA,0.0019 ± 0.0028,0.000527 ± 0.0082
GGAGACCUAUGAUAUGUUGCUUCUAGCUCA,0.000543 ± 0.012,0.00136 ± 0.0065
GGAGACCUAUGAUAACAACCUACUACCUAA,0.00212 ± 0.0038,0.000292 ± 0.0089
GGAGACCUAUGAUAUCAACCUACUACGCUCA,0.00163 ± 0.0054,0.00026 ± 0.0097
GGAGACCUAUGAUAUGUUGGUUCAACCUCA,0.000351 ± 0.012,0.000454 ± 0.0097
GGAGACCUAUGAUAUGUUCGUACUUCCUCA,0.000222 ± 0.026,0.000261 ± 0.027
GGAGACCUAUGAAUACAACCUACAUCCUCA,0.00241 ± 0.0029,0.00126 ± 0.0037
GGAGACCUAUGAUUACAACCUAGUACCACA,0.00109 ± 0.0057,0.000262 ± 0.0076
GGAGACCUAUGUAUUCAACCUACUUCCUCA,0.00515 ± 0.0026,0.000235 ± 0.01
GGAGACCUAUGAUAACACCUACUACCUCA,0.000842 ± 0.0081,0.000208 ± 0.01
GGAGACCUAUGAUAACAACCUAGUUCCUCA,0.000566 ± 0.0094,0.000156 ± 0.0094
GGAGACCUAUGAUAUCAACCUACUUCCUCA,0.00124 ± 0.0035,0.000171 ± 0.011
GGAGACCUUACUAUACCAACCUACUACCUCA,0.00685 ± 0.0036,0.00216 ± 0.003
GGAGACCUAUGAUAUCAACCUUCUACCUGA,0.000164 ± 0.016,0.000208 ± 0.011
GGAGACCUAUGAUAACAACCAACAACCUCA,0.00208 ± 0.0039,0.000456 ± 0.0059
GGAGACCUAUGAUAACAACCUACAUGCUCA,0.00111 ± 0.0063,0.000361 ± 0.013
GGAGACCAUACUAUAGAACCUACUAGCUCA,0.00202 ± 0.0051,0.00246 ± 0.0038
GGAGACCUAUGAUAUGUUGCUAGUACGUCA,0.000508 ± 0.015,0.000729 ± 0.008
GGAGACCUUACUAUACAACCUCACUACCUCA,0.00224 ± 0.0046,0.00195 ± 0.0035
GGAGACCUAUGAUAUCAACCUCUACCUCA,0.0001 ± 0.04,0.000218 ± 0.013
GGAGACCUAUGAUAACAACCAAGUACCUCA,0.00175 ± 0.0047,0.000575 ± 0.0033
GGAGACCUAUGAUUACAACGUUCUACCUCA,0.0016 ± 0.0034,0.000273 ± 0.0059
GGAGACCUAUGUAUACAACCUUACUACCUCA,0.0023 ± 0.0024,0.000282 ± 0.0055
GGAGACCUAUGAUAUGUUCCACUACCUCA,0.000202 ± 0.015,0.0018 ± 0.0027
GGAGACCUAUGAUAACAACCUACUAACUCA,0.00238 ± 0.0029,0.00215 ± 0.0038
GGAGACCUAUGAUAUCAACCGACUACCUCA,0.00134 ± 0.0052,0.000541 ± 0.0059

# Single records, as listed above:
# GGAGACCUAUGAUAACAACCAAGUACCUCA is listed as pre-steady-state target cleavage rate [1]: 0.00175 ± 0.0047; pre-steady-state target cleavage rate [2]: 0.000575 ± 0.0033
# GGAGACCUAUGAUAUGUUGGUAAUACCUCA is listed as pre-steady-state target cleavage rate [1]: 0.000314 ± 0.022; pre-steady-state target cleavage rate [2]: 0.000514 ± 0.011
